Our source for the binding values is paper doi:10.1101/2024.07.22.604556.

Results are given in words; binding and its absence hold for the method and conditions named. Binding seen in cells or lysates may run through a third protein. Some entries that bind do so weakly or less than the wild type.

Experiment [1] has as its target CSB-mScarletI (knock-in) (human (endogenous in HCT116)) (UniProt Q03468). The experiment is described as follows: co-IP.
Experiment [2] concerns the target CSB-mScarletI (knock-in) (human (endogenous in HCT116)), Q03468. The experiment is described as follows: co-IP. As to conditions: remark: other sources report otherwise.

As to CUL4A (from UniProt Q13619 1-759), in experiment [1], the binding entry is recorded as “binds”.

B1: XPD subunit of the TFIIH complex, P18074 1-760 (protein)
chain: MKLNVDGLLVYFPYDYIYPEQFSYMRELKRTLDAKGHGVLEMPSGTGKTVSLLALIMAYQRAYPLEVTKLIYCSRTVPEIEKVIEELRKLLNFYEKQEGEKLPFLGLALSSRKNLCIHPEVTPLRFGKDVDGKCHSLTASYVRAQYQHDTSLPHCRFYEEFDAHGREVPLPAGIYNLDDLKALGRRQGWCPYFLARYSILHANVVVYSYHYLLDPKIADLVSKELARKAVVVFDEAHNIDNVCIDSMSVNLTRRTLDRCQGNLETLQKTVLRIKETDEQRLRDEYRRLVEGLREASAARETDAHLANPVLPDEVLQEAVPGSIRTAEHFLGFLRRLLEYVKWRLRVQHVVQESPPAFLSGLAQRVCIQRKPLRFCAERLRSLLHTLEITDLADFSPLTLLANFATLVSTYAKGFTIIIEPFDDRTPTIANPILHFSCMDASLAIKPVFERFQSVIITSGTLSPLDIYPKILDFHPVTMATFTMTLARVCLCPMIIGRGNDQVAISSKFETREDIAVIRNYGNLLLEMSAVVPDGIVAFFTSYQYMESTVASWYEQGILENIQRNKLLFIETQDGAETSVALEKYQEACENGRGAILLSVARGKVSEGIDFVHHYGRAVIMFGVPYVYTQSRILKARLEYLRDQFQIRENDFLTFDAMRHAAQCVGRAIRGKTDYGLMVFADKRFARGDKRGKLPRWIQEHLTDANLNLTVDEGVQVAKYFLRQMAQPFHREDQLGLSLLSLEQLESEETLKRIEQIAQQL
For the molecule B1, the binding entry in experiment [2] is “binds”.
